Reference: the supplement of paper PMC12282887

Tested on: Escherichia coli BW25113
Test: growth (OD600 area under curve, 8 h) (OD600 x h); higher = more growth
Method: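 E. coli BW25113 reporter strains (wild type, ΔmarA, ΔsoxS, Δrob, each carrying one of 8 lux reporter plasmids) were grown in 40 µl LB in 384-well plates at 37°C, 800 rpm, with each compound at 4 two-fold concentrations, in biological duplicates. Growth is the baseline-corrected OD600 area under the curve over 8 h (0-8 h WT, 1-9 h deletion strains).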

COc1cc(Cc2cnc(N)nc2N)cc(OC)c1OC [Trimethoprim]
growth
Settings	reporter plasmid: EVC	reporter plasmid: acrABp	reporter plasmid: marRABp	reporter plasmid: micFp	reporter plasmid: ompFp	reporter plasmid: robp	reporter plasmid: soxSp	reporter plasmid: tolCp
0.073 µg/ml, genetic background: wild type	3.225	3.29	3.46	2.78	3.24	3.4	2.76	2.71
0.073 µg/ml, genetic background: ΔmarA	3.01	4.68	3.83	3.38	4	3.76	2.649	3.07
0.073 µg/ml, genetic background: Δrob	2.97	3.643	3.55	2.9	2.86	3.05	2.8	2.67
0.073 µg/ml, genetic background: ΔsoxS	3.48	3.67	3.63	2.9663	3.11	3.77	3.33	3.21
0.15 µg/ml, genetic background: wild type	3.12	3.16	3.24	2.765	3.01	3.23	2.84	2.68
0.15 µg/ml, genetic background: ΔmarA	2.91	4.4	3.566	3.36	3.76	3.75	2.93	2.82
0.15 µg/ml, genetic background: Δrob	3.05	3.399	3.25	2.79	2.88	2.9	2.62	2.58
0.15 µg/ml, genetic background: ΔsoxS	3.557	3.79	3.36	3.09	3.06	3.455	3.19	3.37
0.29 µg/ml, genetic background: wild type	3.2	3.25	3.55	2.71	3.09	3.58	2.75	2.92
0.29 µg/ml, genetic background: ΔmarA	2.8	4.66	3.85	3.2	3.93	3.884	2.76	2.779
0.29 µg/ml, genetic background: Δrob	3.18	3.49	3.5	2.84	2.67	2.97	2.63	2.796
0.29 µg/ml, genetic background: ΔsoxS	3.39	3.81	3.71	3.01	3.23	3.86	3.56	3.23
0.58 µg/ml, genetic background: wild type	3.09	2.61	3.14	2.64	2.62	3.18	2.73	2.77
0.58 µg/ml, genetic background: ΔmarA	2.63	3.82	2.87	3.09	3.09	3.49	2.4	2.62
0.58 µg/ml, genetic background: Δrob	3.26	2.55	2.91	2.657	2.18	2.287	2.64	3.09
0.58 µg/ml, genetic background: ΔsoxS	3.47	2.98	3.05	2.56	2.42	2.68	3.04	3.36

COc1cc(C=O)ccc1O [Vanillin]
growth
Settings	reporter plasmid: EVC	reporter plasmid: acrABp	reporter plasmid: marRABp	reporter plasmid: micFp	reporter plasmid: ompFp	reporter plasmid: robp	reporter plasmid: soxSp	reporter plasmid: tolCp
19 µg/ml, genetic background: wild type	3.173	2.95	3.06	2.65	2.97	3.08	2.8	2.73
19 µg/ml, genetic background: ΔmarA	3.1	4.23	3.86	3.38	3.56	4.122	2.58	2.918
19 µg/ml, genetic background: Δrob	2.97	2.713	2.91	2.76	2.7	2.81	2.46	2.47
19 µg/ml, genetic background: ΔsoxS	3.61	3.4	3.27	2.89	3.21	3.35	3.12	3.15
38 µg/ml, genetic background: wild type	2.9999	2.869	2.87	2.53	2.94	3.04	2.65	2.59
38 µg/ml, genetic background: ΔmarA	2.88	4.26	3.818	3.18	3.45	4.1	2.56	2.95
38 µg/ml, genetic background: Δrob	2.76	2.81	2.9	2.51	2.8	2.74	2.23	2.34
38 µg/ml, genetic background: ΔsoxS	3.41	3.34	3.32	2.93	3.35	3.21	2.65	3.12
76.1 µg/ml, genetic background: wild type	3.219	2.59	2.91	2.57	2.91	3.2	2.706	2.75
76.1 µg/ml, genetic background: ΔmarA	2.79	3.76	3.3	3.37	3.35	3.75	2.66	2.9
76.1 µg/ml, genetic background: Δrob	2.94	2.92	2.74	2.77	2.71	2.564	2.38	2.56
76.1 µg/ml, genetic background: ΔsoxS	3.36	3.39	3.08	3.01	3.02	3.28	2.8	3.23
152.1 µg/ml, genetic background: wild type	2.97	2.37	2.86	2.55	2.87	2.91	2.51	2.67
152.1 µg/ml, genetic background: ΔmarA	2.66	3.62	2.94	3.2	3.26	3.607	2.34	2.59
152.1 µg/ml, genetic background: Δrob	2.91	2.69	2.66	2.48	2.61	2.377	2.18	2.42
152.1 µg/ml, genetic background: ΔsoxS	3.23	2.894	2.83	2.69	2.7	2.858	2.7	3.15

COc1ccc(CCN(C)CCCC(C#N)(c2ccc(OC)c(OC)c2)C(C)C)cc1OC (centres undefined) [Verapamil]
growth
Settings	reporter plasmid: EVC	reporter plasmid: acrABp	reporter plasmid: marRABp	reporter plasmid: micFp	reporter plasmid: ompFp	reporter plasmid: robp	reporter plasmid: soxSp	reporter plasmid: tolCp
28.4 µg/ml, genetic background: wild type	2.81	2.52	2.51	2.526	2.59	2.65	2.51	2.44
28.4 µg/ml, genetic background: ΔmarA	2.76	2.95	2.87	3.14	2.9684	3.06	2.82	2.84
28.4 µg/ml, genetic background: Δrob	2.48	2.36	2.52	2.55	2.31	2.429	2.33	2.222
28.4 µg/ml, genetic background: ΔsoxS	2.98	2.72	2.74	2.82	2.7	2.68	2.57	2.59
56.8 µg/ml, genetic background: wild type	2.93	2.41	2.36	2.51	2.65	2.61	2.5	2.424
56.8 µg/ml, genetic background: ΔmarA	2.8	2.86	2.66	3.19	2.91	3.14	2.62	2.83
56.8 µg/ml, genetic background: Δrob	2.68	2.43	2.32	2.66	2.25	2.27	2.462	2.25
56.8 µg/ml, genetic background: ΔsoxS	3.07	3.12	2.52	2.84	2.84	2.72	2.49	2.81
113.7 µg/ml, genetic background: wild type	3.174	2.36	2.366	2.66	2.52	2.41	2.63	2.74
113.7 µg/ml, genetic background: ΔmarA	3.1	2.62	2.46	3.31	2.83	2.79	2.78	2.98
113.7 µg/ml, genetic background: Δrob	2.9	2.45	2.14	2.88	2.12	2.08	2.74	2.58
113.7 µg/ml, genetic background: ΔsoxS	2.98	3.03	2.43	3.13	2.9	2.62	2.59	2.98
227.3 µg/ml, genetic background: wild type	3.166	2.16	2.02	2.81	2.45	2.14	2.73	2.91
227.3 µg/ml, genetic background: ΔmarA	3.61	2.5	2.21	3.61	2.27	2.45	3.4	3.339
227.3 µg/ml, genetic background: Δrob	3.38	2.31	2.04	3.29	1.84	1.72	3	3.25
227.3 µg/ml, genetic background: ΔsoxS	3.527	2.92	2.25	3.28	2.66	2.12	2.76	3.42

Values are raw readings; no control value is given beside them.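 Maximum concentrations were near the MIC for antimicrobials, 500 µM for most other compounds, and as high as 1 mM for known inducer-like compounds. Deletion strains began with a tenfold smaller inoculum, and wells with growth under 10% of the overall median counted as non-growing.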
